Literature values in publication PMC3909768 (Journal of Cancer, 2014).

Target: GABA receptors
Details: read-out: IC50, GABA receptors; ref [6]; cited from earlier work

## CNC(=O)c1ccc(N2C(=S)N(c3ccc(C#N)c(C(F)(F)F)c3)C(=O)C2(C)C)cc1F [MDV3100]
  IC50: 2.7 µM
